No constants are given. Whether binding was seen depends on the method and setting. Some results given as binding are weak or reduced against the parent protein; the word gives no strength.
Tests used:
Assay in all cases: cryo-EM structure; FAS1-His6 and FAS2 co-expressed and purified as one complex; 1-2 mg/ml in TBS (50 mM Tris pH 7.4, 150 mM NaCl) on holey gold grids; WT apo or with acetyl-CoA, malonyl-CoA and NADPH; mutants with substrates; D3 symmetrised maps; for H1564A and H740A also symmetry expansion, signal subtraction and focused classification; both purified
[1] = molecular target: S. cerevisiae fatty acid synthase FAS1 polypeptide (β-chain), wild type, C-terminal 6xHis (S. cerevisiae) (UniProt P07149)
[2] = molecular target: S. cerevisiae FAS1 polypeptide (β-chain) S274A S1808A, C-terminal 6xHis (S. cerevisiae) (UniProt P07149)
[3] = molecular target: S. cerevisiae FAS1 polypeptide (β-chain) H740A, C-terminal 6xHis (S. cerevisiae) (UniProt P07149)
[4] = molecular target: S. cerevisiae FAS1 polypeptide (β-chain) H1564A, C-terminal 6xHis (S. cerevisiae) (UniProt P07149)

The chains behind the UniProt entries cited, without tags or fusion partners. Where a name states a change or a piece, a line headed by the entry shows the natural chain unless it says otherwise.
UniProt P07149: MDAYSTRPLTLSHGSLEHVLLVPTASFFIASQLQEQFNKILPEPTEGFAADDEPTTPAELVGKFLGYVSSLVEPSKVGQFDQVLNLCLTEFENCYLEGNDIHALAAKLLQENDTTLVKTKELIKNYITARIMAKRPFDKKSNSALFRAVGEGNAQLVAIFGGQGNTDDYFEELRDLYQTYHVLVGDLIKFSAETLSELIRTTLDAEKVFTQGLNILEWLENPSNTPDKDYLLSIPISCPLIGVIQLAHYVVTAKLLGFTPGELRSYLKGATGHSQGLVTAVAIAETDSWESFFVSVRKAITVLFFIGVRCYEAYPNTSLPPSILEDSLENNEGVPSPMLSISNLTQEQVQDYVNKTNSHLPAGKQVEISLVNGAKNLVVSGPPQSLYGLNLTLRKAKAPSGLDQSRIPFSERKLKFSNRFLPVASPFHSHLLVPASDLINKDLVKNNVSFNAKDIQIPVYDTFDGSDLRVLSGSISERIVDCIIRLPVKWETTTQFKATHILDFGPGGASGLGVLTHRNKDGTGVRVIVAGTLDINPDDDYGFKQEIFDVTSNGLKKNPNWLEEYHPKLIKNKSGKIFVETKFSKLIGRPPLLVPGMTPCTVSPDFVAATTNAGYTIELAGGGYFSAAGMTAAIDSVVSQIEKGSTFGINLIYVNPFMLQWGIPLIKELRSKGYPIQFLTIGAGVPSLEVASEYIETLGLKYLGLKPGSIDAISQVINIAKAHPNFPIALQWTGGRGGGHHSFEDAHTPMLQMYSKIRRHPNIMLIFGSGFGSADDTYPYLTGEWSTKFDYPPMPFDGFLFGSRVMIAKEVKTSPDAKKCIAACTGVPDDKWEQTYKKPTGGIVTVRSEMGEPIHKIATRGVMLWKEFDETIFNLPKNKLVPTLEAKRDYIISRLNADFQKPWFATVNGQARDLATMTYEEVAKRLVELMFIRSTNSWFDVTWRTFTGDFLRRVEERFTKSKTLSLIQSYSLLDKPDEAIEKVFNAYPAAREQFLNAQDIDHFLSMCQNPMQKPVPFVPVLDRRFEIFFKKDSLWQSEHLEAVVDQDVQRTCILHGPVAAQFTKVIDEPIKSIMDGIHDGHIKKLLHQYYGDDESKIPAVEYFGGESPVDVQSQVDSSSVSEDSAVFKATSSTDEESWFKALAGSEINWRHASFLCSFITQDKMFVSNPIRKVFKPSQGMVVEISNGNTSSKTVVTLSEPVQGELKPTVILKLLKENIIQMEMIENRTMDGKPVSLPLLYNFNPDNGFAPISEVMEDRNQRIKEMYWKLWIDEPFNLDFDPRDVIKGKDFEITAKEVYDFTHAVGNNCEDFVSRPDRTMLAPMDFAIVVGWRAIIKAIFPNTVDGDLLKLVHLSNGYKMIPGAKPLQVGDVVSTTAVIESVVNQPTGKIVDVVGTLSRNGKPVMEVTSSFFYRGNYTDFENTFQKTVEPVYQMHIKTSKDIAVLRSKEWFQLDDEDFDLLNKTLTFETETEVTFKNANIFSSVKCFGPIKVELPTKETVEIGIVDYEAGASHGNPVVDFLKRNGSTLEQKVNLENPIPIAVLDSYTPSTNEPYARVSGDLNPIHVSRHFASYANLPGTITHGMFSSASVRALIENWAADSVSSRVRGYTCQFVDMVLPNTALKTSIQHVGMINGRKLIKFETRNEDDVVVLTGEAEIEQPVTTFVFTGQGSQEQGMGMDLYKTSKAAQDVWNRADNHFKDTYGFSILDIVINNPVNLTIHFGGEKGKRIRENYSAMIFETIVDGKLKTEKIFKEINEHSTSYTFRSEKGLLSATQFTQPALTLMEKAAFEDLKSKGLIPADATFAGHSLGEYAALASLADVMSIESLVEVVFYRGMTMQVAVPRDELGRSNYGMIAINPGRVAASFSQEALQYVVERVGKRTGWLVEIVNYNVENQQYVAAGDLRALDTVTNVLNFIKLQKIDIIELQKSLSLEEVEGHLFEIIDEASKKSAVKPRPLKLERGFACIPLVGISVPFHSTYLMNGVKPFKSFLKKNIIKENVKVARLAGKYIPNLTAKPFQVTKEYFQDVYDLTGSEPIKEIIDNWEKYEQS

| binding [1] | binding [2] | binding [3] | binding [4] | Molecule |
| --- | --- | --- | --- | --- |
| binds | – | – | – | S. cerevisiae FAS2 polypeptide (α-chain) Y839A (from UniProt P19097 1-1887) (enzyme) |
| binds | binds | binds | binds | S. cerevisiae fatty acid synthase FAS2 polypeptide (α-chain), wild type (enzyme, Fatty acid synthase subunit alpha (FAS2 gene product), S. cerevisiae strain BJ2168, gene amplified from genomic DNA into NcoI-digested pET-15b(+); holds the ACP domain (residues 140-302), KR and KS domains; Serine 180 of the ACP domain is called the phosphopantetheine attachment site; No tag is named for FAS2; also called JWL03; holds the ACP domain; source: E. coli BL21, co-expressed with …) MKPEVEQELAHILLTELLAYQFASPVRWIETQDVFLKDFNTERVVEIGPSPTLAGMAQRTLKNKYESYDAALSLHREILCYSKDAKEIYYTPDPSELAAKEEPAKEEAPAPTPAASAPAPAAAAPAPVAAAAPAAAAAEIADEPVKASLLLHVLVAHKLKKSLDSIPMSKTIKDLVGGKSTVQNEILGDLGKEFGTTPEKPEETPLEELAETFQDTFSGALGKQSSSLLSRLISSKMPGGFTITVARKYLQTRWGLPSGRQDGVLLVALSNEPAARLGSEADAKAFLDSMAQKYASIVGVDLSSAASASGAAGAGAAAGAAMIDAGALEEITKDHKVLARQQLQVLARYLKMDLDNGERKFLKEKDTVAELQAQLDYLNAELGEFFVNGVATSFSRKKARTFDSSWNWAKQSLLSLYFEIIHGVLKNVDREVVSEAINIMNRSNDALIKFMEYHISNTDETKGENYQLVKTLGEQLIENCKQVLDVDPVYKDVAKPTGPKTAIDKNGNITYSEEPREKVRKLSQYVQEMALGGPITKESQPTIEEDLTRVYKAISAQADKQDISSSTRVEFEKLYSDLMKFLESSKEIDPSQTTQLAGMDVEDALDKDSTKEVASLPNKSTISKTVSSTIPRETIPFLHLRKKTPAGDWKYDRQLSSLFLDGLEKAAFNGVTFKDKYVLITGAGKGSIGAEVLQGLLQGGAKVVVTTSRFSKQVTDYYQSIYAKYGAKGSTLIVVPFNQGSKQDVEALIEFIYDTEKNGGLGWDLDAIIPFAAIPEQGIELEHIDSKSEFAHRIMLTNILRMMGCVKKQKSARGIETRPAQVILPMSPNHGTFGGDGMYSESKLSLETLFNRWHSESWANQLTVCGAIIGWTRGTGLMSANNIIAEGIEKMGVRTFSQKEMAFNLLGLLTPEVVELCQKSPVMADLNGGLQFVPELKEFTAKLRKELVETSEVRKAVSIETALEHKVVNGNSADAAYAQVEIQPRANIQLDFPELKPYKQVKQIAPAELEGLLDLERVIVVTGFAEVGPWGSARTRWEMEAFGEFSLEGCVEMAWIMGFISYHNGNLKGRPYTGWVDSKTKEPVDDKDVKAKYETSILEHSGIRLIEPELFNGYNPEKKEMIQEVIVEEDLEPFEASKETAEQFKHQHGDKVDIFEIPETGEYSVKLLKGATLYIPKALRFDRLVAGQIPTGWNAKTYGISDDIISQVDPITLFVLVSVVEAFIASGITDPYEMYKYVHVSEVGNCSGSGMGGVSALRGMFKDRFKDEPVQNDILQESFINTMSAWVNMLLISSSGPIKTPVGACATSVESVDIGVETILSGKARICIVGGYDDFQEEGSFEFGNMKATSNTLEEFEHGRTPAEMSRPATTTRNGFMEAQGAGIQIIMQADLALKMGVPIYGIVAMAATATDKIGRSVPAPGKGILTTAREHHSSVKYASPNLNMKYRKRQLVTREAQIKDWVENELEALKLEAEEIPSEDQNEFLLERTREIHNEAESQLRAAQQQWGNDFYKRDPRIAPLRGALATYGLTIDDLGVASFHGTSTKANDKNESATINEMMKHLGRSEGNPVIGVFQKFLTGHPKGAAGAWMMNGALQILNSGIIPGNRNADNVDKILEQFEYVLYPSKTLKTDGVRAVSITSFGFGQKGGQAIVVHPDYLYGAITEDRYNEYVAKVSAREKSAYKFFHNGMIYNKLFVSKEHAPYTDELEEDVYLDPLARVSKDKKSGSLTFNSKNIQSKDSYINANTIETAKMIENMTKEKVSNGGVGVDVELITSINVENDTFIERNFTPQEIEYCSAQPSVQSSFAGTWSAKEAVFKSLGVKSLGGGAALKDIEIVRVNKNAPAVELHGNAKKAAEEAGVTDVKVSISHDDLQAVAVAVSTKK |
